No constants are given. Whether binding was seen depends on the method and setting. Binding seen in cells or lysates may run through a third protein. Some binding calls cover weakened binding; strength is not graded here.

Protein sequences, listed by entry. Tags and fused reporters are not part of them. Lines headed by an entry give the natural chain unless they say otherwise; changes in a name come on top.
UniProt P15941: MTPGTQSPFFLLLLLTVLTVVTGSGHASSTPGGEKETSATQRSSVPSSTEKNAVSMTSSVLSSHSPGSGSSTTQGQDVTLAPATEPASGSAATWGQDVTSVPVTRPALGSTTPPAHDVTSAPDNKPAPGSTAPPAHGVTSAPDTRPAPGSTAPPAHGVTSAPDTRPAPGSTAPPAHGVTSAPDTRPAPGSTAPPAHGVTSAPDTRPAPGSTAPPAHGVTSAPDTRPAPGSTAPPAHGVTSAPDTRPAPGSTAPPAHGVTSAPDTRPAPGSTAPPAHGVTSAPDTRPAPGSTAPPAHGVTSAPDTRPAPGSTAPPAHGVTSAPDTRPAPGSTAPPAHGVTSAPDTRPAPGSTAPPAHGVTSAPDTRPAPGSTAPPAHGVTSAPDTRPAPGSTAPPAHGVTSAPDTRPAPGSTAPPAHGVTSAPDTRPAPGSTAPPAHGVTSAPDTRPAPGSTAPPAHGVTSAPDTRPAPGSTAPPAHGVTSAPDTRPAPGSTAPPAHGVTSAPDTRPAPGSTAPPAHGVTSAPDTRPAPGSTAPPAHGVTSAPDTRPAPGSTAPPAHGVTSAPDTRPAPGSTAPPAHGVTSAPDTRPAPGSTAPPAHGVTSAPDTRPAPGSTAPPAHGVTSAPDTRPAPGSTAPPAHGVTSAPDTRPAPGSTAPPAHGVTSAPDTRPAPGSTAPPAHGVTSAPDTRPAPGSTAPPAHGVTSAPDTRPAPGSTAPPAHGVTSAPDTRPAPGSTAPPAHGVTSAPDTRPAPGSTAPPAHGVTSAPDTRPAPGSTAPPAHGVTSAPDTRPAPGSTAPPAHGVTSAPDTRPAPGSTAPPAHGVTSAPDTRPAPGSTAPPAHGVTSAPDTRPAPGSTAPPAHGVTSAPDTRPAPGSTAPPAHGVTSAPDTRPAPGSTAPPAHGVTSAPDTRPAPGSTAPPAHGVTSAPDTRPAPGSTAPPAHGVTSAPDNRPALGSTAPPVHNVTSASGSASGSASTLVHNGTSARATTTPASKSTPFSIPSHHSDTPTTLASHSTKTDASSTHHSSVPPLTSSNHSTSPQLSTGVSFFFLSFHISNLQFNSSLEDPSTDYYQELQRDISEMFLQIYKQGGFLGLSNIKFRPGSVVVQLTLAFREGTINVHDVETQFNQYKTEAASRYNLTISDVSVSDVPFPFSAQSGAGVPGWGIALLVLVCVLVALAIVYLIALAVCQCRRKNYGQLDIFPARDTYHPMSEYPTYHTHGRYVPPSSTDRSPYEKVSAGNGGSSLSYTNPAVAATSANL

The values that follow come from patent publication US20100125055A1 (Dana-Farber, published 2010).

One experiment addresses GFP-MUC1-CD (human) (UniProt P15941). Description: anti-Flag coprecipitation from transfected 293 cells; interaction that the MUC1/CQC peptide disrupts.
Another experiment addresses Flag-MUC1-CD (human) (UniProt P15941). Description: co-immunoprecipitation from lysates of transfected 293 cells: IP anti-Flag, IB anti-GFP (loading: IP anti-Flag, IB anti-Flag); cells untreated or treated with 5 uM MUC1/CQC or MUC1/AQA for 3 d.

Regarding “Flag-MUC1-CD (from UniProt P15941 1184-1255)”, the binding entry with GFP-MUC1-CD (human) is “binds”.

With “GFP-MUC1-CD (from UniProt P15941 1184-1255)”, in the experiment with Flag-MUC1-CD (human), the binding result was “binds”.
